# In US20220396794:
# What was measured:
# [1] = target: Transferrin receptor 1 (TfR1) on cells (Homo sapiens) (UniProt P02786); test: activity in cells; settings: 2'-F pyrimidines (rule of the parent selection), protein on the cell surface, protein details: endogenous, U87MG, PANC-1 or HepG2 cells, variant of TR14 (87-nt)
# [2] = target: Transferrin receptor 1 (TfR1) on cells (Homo sapiens) (UniProt P02786); test: competition with a labelled probe; settings: 2'-F pyrimidines (2'-F U, 2'-F C, SELEX rule); TR14 200 nM pre-incubation significantly inhibited transferrin uptake in PANC-1; no competition with anti-TfR antibody; protein on the cell surface; protein details: endogenous, U87MG, PANC-1 or HepG2 cells; label: biotin (SPR) or Cy3 (cells)
# [3] = target: Transferrin receptor 1 (TfR1) on cells (Homo sapiens) (UniProt P02786); test: flow cytometry; settings: 2'-F pyrimidines (2'-F U, 2'-F C, SELEX rule); PANC-1 cells, 500 nM, on ice; enriched over library; protein on the cell surface; protein details: endogenous, U87MG, PANC-1 or HepG2 cells; label: biotin (SPR) or Cy3 (cells)
# [4] = target: T1, Transferrin receptor 2 (TfR2) on cells (Homo sapiens) (UniProt Q9UP52); test: binding assay; settings: confocal live-cell imaging, protein details: endogenous, TB10 glioma cells, TfR1-negative, label: biotin (SPR) or Cy3 (cells)
# T1 sequence (looked up, limits assumed): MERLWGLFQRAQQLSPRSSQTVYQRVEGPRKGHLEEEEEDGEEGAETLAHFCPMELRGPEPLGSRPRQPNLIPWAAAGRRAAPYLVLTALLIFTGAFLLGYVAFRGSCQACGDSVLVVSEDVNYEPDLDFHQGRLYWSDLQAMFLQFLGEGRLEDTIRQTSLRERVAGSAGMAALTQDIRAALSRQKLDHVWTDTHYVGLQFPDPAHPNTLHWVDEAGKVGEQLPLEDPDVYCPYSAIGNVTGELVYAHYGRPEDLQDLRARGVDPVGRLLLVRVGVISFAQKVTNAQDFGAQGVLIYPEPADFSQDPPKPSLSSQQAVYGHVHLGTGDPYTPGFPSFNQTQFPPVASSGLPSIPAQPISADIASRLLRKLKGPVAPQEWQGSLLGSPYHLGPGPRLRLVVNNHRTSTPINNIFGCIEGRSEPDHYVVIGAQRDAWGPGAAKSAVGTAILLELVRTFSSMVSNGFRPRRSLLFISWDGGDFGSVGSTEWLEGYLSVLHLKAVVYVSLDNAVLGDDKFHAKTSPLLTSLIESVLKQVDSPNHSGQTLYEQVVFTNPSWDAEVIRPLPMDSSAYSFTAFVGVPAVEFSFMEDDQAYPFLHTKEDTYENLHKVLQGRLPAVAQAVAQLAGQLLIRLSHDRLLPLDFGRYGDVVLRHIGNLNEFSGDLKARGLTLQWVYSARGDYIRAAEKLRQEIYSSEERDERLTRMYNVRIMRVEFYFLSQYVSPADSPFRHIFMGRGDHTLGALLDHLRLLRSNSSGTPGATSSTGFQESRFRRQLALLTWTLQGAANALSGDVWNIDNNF
# [5] = target: Transferrin receptor 1 (TfR1) on cells (Homo sapiens) (UniProt P02786); test: binding assay; settings: 2'-F pyrimidines (rule of the parent selection); confocal live-cell imaging, U87MG; also internalised in HepG2 and PANC-1; protein on the cell surface; protein details: endogenous, U87MG, PANC-1 or HepG2 cells; label: biotin (SPR) or Cy3 (cells); variant of TR14 (87-nt)
# [6] = not internalised in HepG2 and PANC-1, 100 nM
sequence,measurement,setting,value
AAUGCGUUCACGUUUAUUCACAUUUUUGAAUU [TR14 ST1-2 (32-nt)],functional effect of the aptamer,[1]; [6],not active
GCUCAAUGCGUUCACGUUUAUUCACAUUUUUGAAUUGAGC [TR14 ST1-1 (40-nt)],functional effect of the aptamer,[1]; [6],not active
GGGAGACAAGAAUAAACGCUCAAUGCGUUCACGUUUAUUCACAUUUUUGAAUUGAGCAUGAGCUUCGACAGGAGGCUCACAACAGGC [TR14 (87-nt)],functional effect of the aptamer,[2],active
same,binding result,[3],binds
same,binding result,"[4]; 2'-F pyrimidines (2'-F U, 2'-F C, SELEX rule), TB10 cells, parent TR14 bound both TfR1 (U87MG) and TfR2, protein on the cell …",binds
GGGGCUCAAUGCGUUCACGUUUAUUCACAUUUUUGAAUUGAGC [TR14 S2 (43-nt)],binding result,[5],binds
same,binding result,"[4]; 2'-F pyrimidines (rule of the parent selection), TB10, S2 selective for TfR1, protein on the cell surface, variant of TR14 (87-nt)",no binding
GGGGCUCAAUGCGUUCACGUUUAUUCACAUUUUUGAAUUGAGCAUG [TR14 S1 (46-nt)],functional effect of the aptamer,"[1]; internalised in HepG2 and PANC-1, 100 nM",active
UUUAUUCACAUUUUUGAAUUGA [TR14 ST1-3 (22-nt)],binding result,[5],binds
same,binding result,"[4]; 2'-F pyrimidines (rule of the parent selection), TB10, cross-reactive, protein on the cell surface, variant of TR14 (87-nt)",binds

# For some of these results: Negatives hold for the conditions tested. For some of these results: At least one result comes from cells or an extract, where the contact may be indirect. For some of these results: For at least one entry, the source does not settle the construct or the ends of the probe. For some of these results: Tags and fusion partners may be left off the protein sequences shown.
